# Paper PMC2910502
# Sequences of proteins named here, by UniProt entry; tags and fusion partners are left off.
# UniProt Q9R1E0: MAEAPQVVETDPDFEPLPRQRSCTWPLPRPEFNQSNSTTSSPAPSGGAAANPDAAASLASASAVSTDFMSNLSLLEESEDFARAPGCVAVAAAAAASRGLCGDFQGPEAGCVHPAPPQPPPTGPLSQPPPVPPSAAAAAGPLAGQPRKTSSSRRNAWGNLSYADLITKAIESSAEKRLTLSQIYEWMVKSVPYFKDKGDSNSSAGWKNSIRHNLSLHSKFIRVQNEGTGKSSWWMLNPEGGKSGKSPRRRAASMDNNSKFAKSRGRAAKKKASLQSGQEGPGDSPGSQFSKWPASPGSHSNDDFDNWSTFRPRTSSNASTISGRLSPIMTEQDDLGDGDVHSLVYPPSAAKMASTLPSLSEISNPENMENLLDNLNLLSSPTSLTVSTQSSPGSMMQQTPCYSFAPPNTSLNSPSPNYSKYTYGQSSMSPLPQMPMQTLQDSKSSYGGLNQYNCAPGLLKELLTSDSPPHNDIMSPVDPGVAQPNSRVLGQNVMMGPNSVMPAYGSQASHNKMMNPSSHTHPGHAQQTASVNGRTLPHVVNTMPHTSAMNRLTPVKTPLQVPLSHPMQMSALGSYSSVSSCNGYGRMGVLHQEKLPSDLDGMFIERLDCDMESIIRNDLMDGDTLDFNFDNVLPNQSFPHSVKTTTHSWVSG
# No constants are given. Whether binding was seen depends on the method and setting. In cells and extracts the contact can be indirect. Some entries that bind do so weakly or less than the wild type.
# Key:
# [1] = molecular target: T1, SirT1 (mouse (endogenous in MEFs)) (UniProt Q923E4); assay: co-IP; Lv-KRIT1 (K9/6) MEFs grown to confluence; lysates (~2 mg protein) incubated overnight at 4°C with a SirT1-specific mAb and protein A/G-Sepharose; beads washed 4 times with lysis buffer; Western blot of the immunocomplexes
# T1 sequence: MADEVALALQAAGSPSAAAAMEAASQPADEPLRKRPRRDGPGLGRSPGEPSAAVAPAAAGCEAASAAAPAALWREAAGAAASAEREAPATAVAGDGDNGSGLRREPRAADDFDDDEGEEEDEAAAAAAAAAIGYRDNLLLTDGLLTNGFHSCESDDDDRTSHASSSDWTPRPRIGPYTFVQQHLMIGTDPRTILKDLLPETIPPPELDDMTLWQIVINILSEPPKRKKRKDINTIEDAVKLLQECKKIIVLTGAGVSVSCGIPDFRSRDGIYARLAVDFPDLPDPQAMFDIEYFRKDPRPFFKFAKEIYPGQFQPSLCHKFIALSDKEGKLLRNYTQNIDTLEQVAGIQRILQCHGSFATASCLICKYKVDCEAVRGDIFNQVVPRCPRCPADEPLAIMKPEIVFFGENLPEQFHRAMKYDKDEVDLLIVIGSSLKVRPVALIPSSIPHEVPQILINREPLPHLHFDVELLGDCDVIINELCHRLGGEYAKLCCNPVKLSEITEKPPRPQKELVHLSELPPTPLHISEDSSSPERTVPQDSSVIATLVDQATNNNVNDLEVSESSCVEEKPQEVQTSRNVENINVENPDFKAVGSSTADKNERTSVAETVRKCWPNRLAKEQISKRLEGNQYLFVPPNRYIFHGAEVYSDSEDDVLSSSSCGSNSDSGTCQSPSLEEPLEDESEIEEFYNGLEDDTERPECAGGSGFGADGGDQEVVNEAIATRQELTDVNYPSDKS
# [2] = molecular target: T1, SirT1 (mouse (endogenous in MEFs)); assay: co-IP; KRIT1-/- MEFs grown to confluence; lysates (~2 mg protein) incubated overnight at 4°C with a SirT1-specific mAb and protein A/G-Sepharose; beads washed 4 times with lysis buffer; Western blot of the immunocomplexes
binding [1],binding [2],Substance
no binding,,KRIT1A (from UniProt Q6S5J6-1 1-736)
binds,no binding (condition: in KRIT1-/- MEFs),FoxO1 (from UniProt Q9R1E0 1-652)
